# Reference: patent US10925867B2, “Immunotherapeutic dosing regimens comprising pomalidomide and an anti-CS1 antibody for treating cancer” (Bristol-Myers Squibb Company, priority 2015, dated 2021)
# At least one structure is not confirmed: it was looked up by name or label, or the drawing left a doubt.
# Legend:
# [1] = test system: OPM2 xenograft; assay: OPM2 xenograft studies taken together (summary and conclusion); type: in vivo, mice; conditions: elotuzumab 0.5 mg/kg, pomalidomide 5 mg/kg, dexamethasone 5 mg/kg
# Description: The present invention is based on data from preclinical studies conducted in female SCID mice (6-8 weeks old) that were implanted SC (subcutaneous implantation) with the multiple myeloma cell line OPM-2 which were treated with Elotuzumab IP (intraperitoneal administration) alone, treated with pomalidomide alone, treated with dexamethasone alone, or treated in combination with each other. […] All treatments were well tolerated, with no significant changes in body weights or overt signs of clinical toxicity.
# Dosing regimen for dexamethasone was QD×7.
# [2] = test system: refractory or relapsed and refractory MM; conditions: MM-003, cited from earlier work
smiles,measurement,setting,value
C[C@@H]1C[C@H]2[C@@H]3CCC4=CC(=O)C=C[C@]4(C)[C@@]3(F)[C@@H](O)C[C@]2(C)[C@@]1(O)C(=O)CO [Dexamethasone],efficacy / effect on tumor growth (in words),[1],little or no effect on tumor growth
same,median OS,[2],8.1 months
same,objective response rate,[2]; median follow-up of 10.0 months,10%
same,median PFS,"[2]; pomalidomide 4 mg d1-21 of 28 plus dexamethasone 40 mg d1, 8, 15, 22, dexamethasone arm high dose 40 mg/day d1-4, 9-12, 17-20",1.9 months
